The text below walks through data of article PMC7819943, “Rice protein-binding microarrays: a tool to detect cis-acting elements near promoter regions in rice”.

By UniProt entry, the sequences of proteins in these tests, tags left out.
UniProt Q0JBA9, entry or part of it: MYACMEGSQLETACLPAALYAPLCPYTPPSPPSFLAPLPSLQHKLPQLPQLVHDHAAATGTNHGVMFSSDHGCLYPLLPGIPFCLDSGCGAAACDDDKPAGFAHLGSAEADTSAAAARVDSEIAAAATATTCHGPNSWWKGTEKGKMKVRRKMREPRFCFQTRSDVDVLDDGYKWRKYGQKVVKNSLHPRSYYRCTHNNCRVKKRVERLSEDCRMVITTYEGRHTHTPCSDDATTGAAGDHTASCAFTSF

This is one part of the list.

This assay addresses OsWRKY34 (Oryza sativa, UniProt Q0JBA9 1-250). Description: protein-binding microarray (RPBM); PBS, 2% BSA, 51.3 ng/ul salmon testes DNA, 50 uM zinc acetate, 200 nM TF, 25 C, 1 h; high values mean tight binding. The settings on record: protein: recombinant; tags: N-terminal polyhistidine and DsRed monomer fusion (pET32a); label: CyDye5-dUTP incorporated in the synthesized complementary strand; 3' TTTTT single-stranded linker to array surface; dsDNA, one strand shown. The procedure, abridged:
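The binding signal is fluorescence intensity per feature, in arbitrary units, read on an Axon 4000B scanner. Polyhistidine- and DsRed-tagged transcription factors (N-terminal fusions) from E. coli BL21-CodonPlus were purified on Ni–NTA and applied at 200 nM for 1 h at 25 °C to a double-stranded, BSA-blocked custom Agilent array in buffer with 50 µM zinc acetate.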
Consider “GTAGATGAGCAATCCAATGTGTACCTGTGTTGTCTGTTGACGGAGTCACCTAGTGCAG”, for which the binding signal is 9860 fluorescence intensity (a.u.).

For the sequence “GAGTTTCATTCCTGTCCAAACTCTTGACCTTGCCTGACCCCGGAGTCACCTAGTGCAG”, the binding signal was 9190 fluorescence intensity (a.u.).

Turning to “CGACATCCTTTATCTTATCCATCCATCCCACACTGCCACACGGAGTCACCTAGTGCAG”, the binding signal was 8750 fluorescence intensity (a.u.). “CGTTGACTTTTTCTCACATGTTTGACCATTCGTCTTATTCCGGAGTCACCTAGTGCAG”: the binding signal was 31500 fluorescence intensity (a.u.).

As for “TTCTTCGGTGGTGGTGGTGGTGGGATGGAAGAGGAGGAAGCGGAGTCACCTAGTGCAG”, the binding signal is 25800 fluorescence intensity (a.u.). With “GTGTGGATGGTTAGGGGAGGGTTATGTGGAGGGTCTTGTCCGGAGTCACCTAGTGCAG”, the binding signal was 14300 fluorescence intensity (a.u.). Regarding “CTGCATTCCTCCTCCCTCCGCCTCTCGCCGTCGCCGGCGCCGGAGTCACCTAGTGCAG”, the binding signal is 8170 fluorescence intensity (a.u.). “TCCCCTATCTAGAATTATTCACTTTTATGCTTCTATTGTTCGGAGTCACCTAGTGCAG”: the binding signal is 8500 fluorescence intensity (a.u.).

For “TCTAATCTCATCCGTCCGCTGTACACCGTAGCTCTATCTCCGGAGTCACCTAGTGCAG”, the binding signal was 11200 fluorescence intensity (a.u.).

As for “TTGGCTGGAGCTACCCGAAATCATCCTATTTCGTTTTTTTCGGAGTCACCTAGTGCAG”, the binding signal was 11000 fluorescence intensity (a.u.). On to “CCTGCTCGCGGTTGCCTGTGCGTTCGTCTCGCGATTTCTCCGGAGTCACCTAGTGCAG”, for which the binding signal is 11900 fluorescence intensity (a.u.). With “ACTTAGCTAGTGTCTTATTTTCCTTTTTTATTTTTTTCAACGGAGTCACCTAGTGCAG”, the binding signal was 9140 fluorescence intensity (a.u.). Consider “TTTTCGCTGCATGCTGCTTGTCCTGCAAAGTCTCTCGCTTCGGAGTCACCTAGTGCAG”, for which the binding signal is 8940 fluorescence intensity (a.u.).

For the sequence “GCCACTTGCTCCACCCAACGCGCGAGTCTGTGTGCCGCCGCGGAGTCACCTAGTGCAG”, the binding signal is 9420 fluorescence intensity (a.u.). As to “TGCTGCTGCTGTTGTTCGTGTATTGCTCCATCTGTGCACGCGGAGTCACCTAGTGCAG”, the binding signal is 9920 fluorescence intensity (a.u.). As for “TTGTCTGGTATTGCTACTTTACTTCTCAGTGTTGTGTAATCGGAGTCACCTAGTGCAG”, the binding signal was 8100 fluorescence intensity (a.u.).

As for “TTTCCCCGACCAAATCCACGCAAAAACCCTTTCGCATCTACGGAGTCACCTAGTGCAG”, the binding signal was 8780 fluorescence intensity (a.u.).

For “TCAATCAACGGCTACTTGTATGTAATCTCCACGCATTCCACGGAGTCACCTAGTGCAG”, the binding signal is 8630 fluorescence intensity (a.u.).

As to “AAGCTTCATCTCCTCCACGACGAACACCTTGTTCATCCTCCGGAGTCACCTAGTGCAG”, the binding signal was 8730 fluorescence intensity (a.u.). On to “ATAATTTACTGCTACTGACTATATGTACTACCTCTTGCCTCGGAGTCACCTAGTGCAG”, for which the binding signal is 9260 fluorescence intensity (a.u.). Then “CAGCAGCATCCAACCACGACCACAACCACAGAGCAGATTACGGAGTCACCTAGTGCAG”, with 8170 fluorescence intensity (a.u.); and “CTCAAGCTTTTAGTTTGGTGTGTTTATTCTCTTCCCATTTCGGAGTCACCTAGTGCAG”, with 8550 fluorescence intensity (a.u.). For “ATCCCAATCCATGATCCAGCCATTCATCATCTGCATATATCGGAGTCACCTAGTGCAG”, the binding signal was 9790 fluorescence intensity (a.u.). Regarding “GCGGCGGCGGGGCGGCGTCGGGGAGGGAGGAGGAGCAGTGCGGAGTCACCTAGTGCAG”, the binding signal is 10700 fluorescence intensity (a.u.). Turning to “CTTTGCATTGCATCTCAGTGTTCTTCCATTCTTTCCAGAGCGGAGTCACCTAGTGCAG”, the binding signal is 10800 fluorescence intensity (a.u.).

Turning to “AGCACTACTGCACTAGTACTGCAGTAGTATGTCGTTCTTCCGGAGTCACCTAGTGCAG”, the binding signal is 8500 fluorescence intensity (a.u.). On to “GAACTTCCAGATTGGGTGGGGCAGCTCAAGCATGTACGGGCGGAGTCACCTAGTGCAG”, for which the binding signal is 9580 fluorescence intensity (a.u.). “CATCTTGTAATCATGCACTACTGCAACACACAGAACACTCCGGAGTCACCTAGTGCAG”: the binding signal is 9380 fluorescence intensity (a.u.). For “GACGCATGCCTATTCTAGTGCTCCACTGCCACTATCTTTACGGAGTCACCTAGTGCAG”, the binding signal was 8090 fluorescence intensity (a.u.). Then “TTTAGGGGTGTTTGGTTGAGGGGTGAGTGGGATGGGTTGGCGGAGTCACCTAGTGCAG”, with 10300 fluorescence intensity (a.u.); and “ACCATATGCCGCCGGCTAGGTTTAATCACTGCATCTCCTGCGGAGTCACCTAGTGCAG”, with 8910 fluorescence intensity (a.u.). For “CACCAAACATTTTCCTATGCGAGCCCCATCACTAAAATTACGGAGTCACCTAGTGCAG”, the binding signal is 10500 fluorescence intensity (a.u.).

Turning to “ATCCTATTCTACTTAGGTCGCTTTTTATTTGGACGGAGGGCGGAGTCACCTAGTGCAG”, the binding signal was 8610 fluorescence intensity (a.u.). Then “GGTGCTTGAATGTCGAACCATCTACTAACATGGTTTCCAACGGAGTCACCTAGTGCAG”, with 8680 fluorescence intensity (a.u.); and “TTGTTTCCTATACTTCCTACCAAATGTTCTGATTTTACTGCGGAGTCACCTAGTGCAG”, with 9520 fluorescence intensity (a.u.); and “CTCTCTCACACATCTCCATCTAGATTAATTTGCACACAATCGGAGTCACCTAGTGCAG”, with 8060 fluorescence intensity (a.u.). As to “CTCTCACTGTCTCACTGTCTCACTCTCTCTTGCCCACATTCGGAGTCACCTAGTGCAG”, the binding signal is 8470 fluorescence intensity (a.u.). Then “GGGTCTGCTACGATAGGTGGAAGTGTGCCCATATCCACTCCGGAGTCACCTAGTGCAG”, with 8750 fluorescence intensity (a.u.); and “TGCGCCATCTTTTGTCGTCCCGAGGGGATGGGCGGGGTTGCGGAGTCACCTAGTGCAG”, with 16400 fluorescence intensity (a.u.); and “GTCATTCTGAGTGTCTGCCTCTCAATGAGCACTCTTTTCACGGAGTCACCTAGTGCAG”, with 9650 fluorescence intensity (a.u.). With “AACCTGCAAGCGCTCGACCGGTCATCATTCATCAGCTAAACGGAGTCACCTAGTGCAG”, the binding signal is 8410 fluorescence intensity (a.u.).

Take “CCCTTGTCGCCGGATTGCAACAACGAGTGCATTTTCTTGTCGGAGTCACCTAGTGCAG”: the binding signal is 8180 fluorescence intensity (a.u.).
